From patent US20110190218A1 (KARLSRUHE INSTITUTE OF TECHNOLOGY, published 2011)
No constants are given. Whether binding was seen depends on the method and setting. In cells and extracts the contact can be indirect. A yes stands for co-enrichment or nearness to the bait. Other partners may have been found.

The chains behind the UniProt entries cited, without tags or fusion partners. Residues count along the entry.
UniProt P38646, residues 47-679: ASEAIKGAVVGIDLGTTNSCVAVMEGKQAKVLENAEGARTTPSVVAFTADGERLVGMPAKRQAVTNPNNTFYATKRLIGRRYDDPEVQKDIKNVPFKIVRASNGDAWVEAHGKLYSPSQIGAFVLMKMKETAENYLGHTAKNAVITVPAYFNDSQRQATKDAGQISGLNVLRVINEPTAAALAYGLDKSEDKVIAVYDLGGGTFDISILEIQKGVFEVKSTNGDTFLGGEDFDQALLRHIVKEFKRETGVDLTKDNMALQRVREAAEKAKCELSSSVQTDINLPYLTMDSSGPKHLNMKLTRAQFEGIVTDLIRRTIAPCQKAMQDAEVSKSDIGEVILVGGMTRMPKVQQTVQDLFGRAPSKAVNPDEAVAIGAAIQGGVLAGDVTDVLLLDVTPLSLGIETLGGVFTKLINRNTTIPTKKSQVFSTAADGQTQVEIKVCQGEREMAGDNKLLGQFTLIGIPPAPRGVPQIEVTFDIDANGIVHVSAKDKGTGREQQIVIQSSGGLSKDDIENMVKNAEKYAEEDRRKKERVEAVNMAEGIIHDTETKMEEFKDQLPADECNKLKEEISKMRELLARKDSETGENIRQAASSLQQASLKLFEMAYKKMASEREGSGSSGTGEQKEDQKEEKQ
UniProt P11021, residues 19-654: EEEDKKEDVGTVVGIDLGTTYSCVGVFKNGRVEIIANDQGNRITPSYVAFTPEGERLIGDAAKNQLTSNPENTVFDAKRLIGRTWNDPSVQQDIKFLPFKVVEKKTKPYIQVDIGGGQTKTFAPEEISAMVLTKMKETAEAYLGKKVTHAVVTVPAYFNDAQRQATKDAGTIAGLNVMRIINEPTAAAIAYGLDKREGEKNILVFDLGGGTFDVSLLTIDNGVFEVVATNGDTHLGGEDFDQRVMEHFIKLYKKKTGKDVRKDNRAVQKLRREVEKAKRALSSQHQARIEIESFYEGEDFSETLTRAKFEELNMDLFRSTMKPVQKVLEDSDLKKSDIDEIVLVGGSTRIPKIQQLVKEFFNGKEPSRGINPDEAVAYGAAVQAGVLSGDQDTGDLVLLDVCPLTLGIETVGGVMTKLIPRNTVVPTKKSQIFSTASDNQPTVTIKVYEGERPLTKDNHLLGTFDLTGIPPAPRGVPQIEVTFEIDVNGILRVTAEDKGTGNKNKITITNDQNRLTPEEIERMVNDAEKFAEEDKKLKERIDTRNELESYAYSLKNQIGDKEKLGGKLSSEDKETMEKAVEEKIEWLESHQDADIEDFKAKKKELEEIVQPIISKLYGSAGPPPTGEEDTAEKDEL

Experiments:
GRP75 (human) = GRP75 (human) (UniProt P38646); assay: GST pull-down from 22Rv.1 and LNCaP lysates, mass spectrometry; validated by Western blot (FIG. 12)
GRP78 (human) = GRP78 (human) (UniProt P11021); assay: as above

binding (GRP75 (human))	binding (GRP78 (human))	Substance
binds	binds	GST-Bag-1L-(202-269) (from UniProt P08515 1-218)
binds	binds	GST-Bag-1L-(202-241) (from UniProt P08515 1-218)
